Data published in PubChem BioAssay AID493014 (National Center for Advancing Translational Sciences (NCATS), 2011).
This is one part of the list. Further columns of the screen follow, without active or inactive calls. Compounds called inactive in the main read-out are mostly missing here. Words in brackets tell the shape of the fitted curve; partial curves, single points and poor fits give uncertain potencies.

Test: qHTS Assay to Find Inhibitors of Chronic Active B-Cell Receptor Signaling
Settings: ABC-DLBCL IkBa-CBG/CBR reporter, luminescence ratio (green luciferase fused to IkBa over red control in TMD8 lymphoma cells), 4 h
Method in brief: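 TMD8 ABC-DLBCL cells carrying doxycycline-inducible green luciferase fused to IkappaBalpha plus unfused red luciferase were exposed to compounds (up to 46 uM) for 4 hrs at 37C. Activity came from the overlap-corrected green/red luminescence ratio.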

[1] = measured here: CBR red luminescence, cell number
[2] = measured here: IkBa-CBG green luminescence

Structure (SMILES)	AC50 [1]	AC50 [2]
Cc1cc(N2CCCC2)ccc1/C=N/n1cnnc1	10.3 µM [rising, partial curve]	–
Cn1cnc([N+](=O)[O-])c1S(=O)(=O)c1ccc(Cl)cc1	14.6 µM [falling, partial curve]	16.4 µM [rising, partial curve, poor fit]
COc1cc(-c2nn3c(-c4cccc(C)c4)nnc3s2)cc(OC)c1OC	14.6 µM [rising, partial curve, poor fit]	–
CC(C)CN(C(=O)COC(=O)c1c2c(nc3ccccc13)CCC2)c1c(N)n(Cc2ccccc2)c(=O)[nH]c1=O	28.2 µM [falling, single point]	–
Fc1cc2nccnc2cc1N1CCSCC1	29.1 µM [falling, single point]	–
CC(C)NC(=O)c1ccc(COCC(F)(F)C(F)F)cc1	29.1 µM [rising, single point]	–
CCOC(=O)c1ccc(-c2ccc3[nH]c4ccccc4c(=O)c3c2)cc1F	11.2 µM [rising, single point]	–
CC(=O)OC1CC(C)N(C(=O)c2ccccc2)c2ccc(C)cc21 (stereo unspecified)	1.84 µM [rising, partial curve, poor fit]	–
Cc1cc(C(=O)Nc2cccc(NC(=O)c3ccco3)c2)ccc1[N+](=O)[O-]	5.01 µM [falling, full curve, poor fit]	–
COc1ccc(C(=O)n2cc(C(C)=O)c3ccccc32)cc1	15.8 µM [rising, single point]	–
CC(/C=C/c1ccco1)=N/NC(=O)C1COc2ccccc2O1 (stereo unspecified)	25.1 µM [rising, single point]	–
CCOc1ccc(C(=O)NCC(=O)OCCN2C(=O)c3ccccc3C2=O)cc1OCC	29.1 µM [rising, single point]	–
COc1ccc(N(C)C(=O)CCC(=O)Nc2ccc3nc(N4CCOCC4)cc(C)c3c2)c(OC)c1	35.5 µM [falling, single point]	–
O=C(Oc1ccccc1)c1ccc(NC(=O)c2ccco2)cc1	14.6 µM [rising, partial curve, poor fit]	–
COc1ccc(C)c2sc(N(CCN(C)C)C(=O)c3cccc(N4C(=O)CCC4=O)c3)nc12	29.1 µM [falling, single point]	–
Cc1ccc(CS(=O)(=O)c2ncc(Cl)c(C(=O)Nc3nnc(C(C)C)s3)n2)cc1	35.5 µM [falling, single point]	–
CN(C)CCNC(=O)c1ccc(Cl)s1	0.517 µM [falling, full curve, poor fit]	–
COC(=O)c1ccccc1S(=O)(=O)N(Cc1ccco1)Cc1cc2cc(OC)ccc2[nH]c1=O	0.00461 µM [rising, full curve, poor fit]	–
COc1ccc([C@@H]2C[C@H](c3ccccc3)Oc3cc(OC)c(OC)c(OC)c32)cc1	12.6 µM [rising, partial curve, poor fit]	–
Cc1cc(C(=O)Nc2cc(Br)ccc2O)on1	11.2 µM [falling, partial curve, poor fit]	–
Cc1nc2nc(SCC(=O)NCc3ccco3)nn2c(C)c1Cc1c(F)cccc1Cl	7.08 µM [falling, partial curve, poor fit]	–

Structure (SMILES)	AC50 [1]	AC50 [2]
NC(=O)c1c(NC(=O)CSc2nc(N)cc(=O)[nH]2)sc2c1CCCC2	1.26 µM [rising, full curve, poor fit]	7.94 µM [falling, partial curve]
CCCOC(=O)c1ccc(Oc2cn[nH]c2-c2ccc(OCC(=O)NN)cc2O)cc1	35.5 µM [falling, single point]	–
CC(C)(C)NCc1cc(Cl)ccc1OCc1cccs1	18.4 µM [falling, partial curve, poor fit]	–
CN(C)C(=O)CSc1nc2ccccc2n1Cc1ccccc1	18.4 µM [falling, partial curve, poor fit]	–
COc1ccccc1NC(=S)NC1CC2CCC1C2 (stereo unspecified)	15.8 µM [rising, partial curve, poor fit]	–
COc1ccc(Cl)cc1N1CCN(CCNC(=O)Nc2ccccc2C)CC1	3.26 µM [rising, partial curve, poor fit]	–
Cc1ccc(NC(=O)Nc2ccccc2C(=O)NCc2ccccc2)cc1	0.116 µM [falling, full curve]	–
C=C(C)c1cccc(C(C)(C)NC(=O)N2CCCC(C)C2)c1 (stereo unspecified)	13 µM [falling, partial curve]	20.6 µM [rising, partial curve, poor fit]
COc1cc2nc(SCC(=O)NCCc3ccccc3)n(Cc3ccco3)c(=O)c2cc1OC	0.231 µM [falling, partial curve, poor fit]	–
O=C(NC1CCCC1)C(c1ccncc1)N(C(=O)c1csnn1)c1ccccc1F (stereo unspecified)	35.5 µM [falling, single point]	–
Nc1nsc2ccccc12	25.9 µM [falling, single point]	–
CC(C)Cn1c(N)c(C(=O)COC(=O)c2cc(C(F)(F)F)nc3c(C(F)(F)F)cccc23)c(=O)n(C)c1=O	7.31 µM [rising, partial curve, poor fit]	–
CCCCC(=O)Nc1ccc(Br)cc1C(=O)O	2.31 µM [falling, full curve]	29.1 µM [rising, partial curve, poor fit]
CC(Oc1ccccc1)C(=O)OCC(=O)NC(=O)NC1CCCCC1 (stereo unspecified)	0.206 µM [rising, full curve, poor fit]	–
C/C(=N\NC(=O)c1ccc(N2CCCC2=O)cc1)c1ccncc1	0.447 µM [rising, full curve, poor fit]	–
COc1ccc(-c2nc(C#N)c(N3CCN(c4ccccc4)CC3)o2)cc1	5.8 µM [falling, single point]	–
Clc1ccccc1OCc1nnc(-c2ccccc2Br)o1	6.31 µM [rising, single point]	–
CNC(=O)CC1C(=O)N(c2ccc(F)cc2)C(=S)N1NC(=O)c1ccc(Br)cc1 (stereo unspecified)	35.5 µM [falling, partial curve, poor fit]	–
COc1cccc(CNC(=O)CNC(=S)N(Cc2ccccc2)Cc2ccccc2F)c1	17.8 µM [falling, single point]	–
O=C(c1cnn(-c2ccccc2)c1)c1ccccc1O	13 µM [falling, partial curve]	–
Cc1nnc(SCC(=O)N2CCN(c3ccccc3F)CC2)n1C1CC1	23.1 µM [rising, single point]	–

Structure (SMILES)	AC50 [1]	AC50 [2]
C/C(=N\NC(=S)NCc1ccccc1)c1ccc(Br)cc1	5.62 µM [rising, single point]	–
Cc1ccc(CN2CCN(Cc3ccc4cc(F)ccc4n3)CC2CCO)o1 (stereo unspecified)	5.62 µM [rising, single point]	–
CC(/C=C/c1ccc2c(c1)OCO2)=N/NC(=O)c1cccnc1	20.6 µM [falling, partial curve, poor fit]	–
CCOc1cc(-c2nc(-c3ccccc3OC)no2)cc(OCC)c1OCC	29.1 µM [rising, partial curve, poor fit]	–
COc1ccccc1CCC(=O)OCC(=O)Nc1ccc(S(N)(=O)=O)cc1	11.2 µM [rising, partial curve]	–
Cc1ccc(OCCSc2nc(N)cc(N)n2)cc1	1.78 µM [rising, full curve, poor fit]	–
CC(C)(C)c1ccc(NC(=O)c2c(F)cccc2Cl)cc1	5.62 µM [falling, partial curve, poor fit]	–
CCOC(=O)C1CCCN(C(=O)c2ccccc2Oc2ccccc2)C1 (stereo unspecified)	35.5 µM [rising, single point]	–
Cc1ccc(OCCCC(=O)Nc2ccc3c(c2)OCCO3)cc1	6.51 µM [falling, single point]	–
COc1ccccc1NC(=O)Cc1nnc(SCC(=O)Nc2ccc(F)cc2F)n1C	35.5 µM [falling, single point]	–
CCc1cc(/C(Cc2ccc3ccccc3n2)=N\O)c(O)cc1O	12.6 µM [falling, single point]	–
COc1cccc(C2CC(c3ccccc3)=NN2S(=O)(=O)c2ccc(C)cc2)c1OC (stereo unspecified)	8.91 µM [rising, partial curve, poor fit]	–
CCOC(=O)C1=C(C)n2c(s/c(=C3\C(=O)Nc4ccccc43)c2=O)=NC1c1ccc(OC)cc1 (stereo unspecified)	13 µM [falling, single point]	–
CC(C(=O)NC1CCCC1)N(C(=O)Cn1nnc(-c2ccc(F)cc2)n1)c1ccccc1F (stereo unspecified)	8.91 µM [falling, partial curve, poor fit]	–
COc1cc(OC)cc(C(=O)N/N=C/c2ccc(OC)c(COc3ccc(F)cc3)c2)c1	–	11.2 µM [falling, single point]
CC(=O)Nc1sc2c(c1C(c1ccccc1)N1CCOCC1)CCCC2 (stereo unspecified)	0.731 µM [falling, full curve, poor fit]	–
O=C(CSc1nnc(-c2ccccc2)o1)c1ccc2c(c1)OCCO2	3.55 µM [rising, single point]	–
CCOC(=O)c1ccc(Nc2cc(C)nc(-c3ccccc3)n2)cc1	1.26 µM [falling, full curve]	–
Oc1ccc(Br)cc1-c1ccn[nH]1	29.1 µM [rising, partial curve, poor fit]	–
O=C(Nc1cccc(S(=O)(=O)N2CCCCC2)c1)C1CC(=O)N(c2ccc3c(c2)OCCO3)C1 (stereo unspecified)	10 µM [falling, partial curve, poor fit]	–

Molecules from the list above that contain a nitro group on carbon, in the order listed:
Structure (SMILES)	AC50 [1]	AC50 [2]
Cn1cnc([N+](=O)[O-])c1S(=O)(=O)c1ccc(Cl)cc1	14.6 µM [falling, partial curve]	16.4 µM [rising, partial curve, poor fit]
Cc1cc(C(=O)Nc2cccc(NC(=O)c3ccco3)c2)ccc1[N+](=O)[O-]	5.01 µM [falling, full curve, poor fit]	–
